Where a chain is given by its changes, count along the chain named. No constants are given. Whether binding was seen depends on the method and setting.
B1: antibody 3 (antibody, V domains shown)
VH: QVTLKESGPGILQPSQTLSLTCSFSGFSLTTFAMGIGWVRQPSGKGLEWLAHIWWDGEKYNNPVLKSRLTISKDTSKNQVFLRIANVDTPDTATYYCARISSIYYIIDNWGQGTSVTVSS
VL: DIVLTQSPATLSVTPGHSVSLSCRASQSISNNLHWYQKKSHESPRLLIKYVSQSISGIPSRFSGSGSGTDFTLSINSVETEDFGMYFCQQSYNWPLTFGAGTKLELK
B2: antibody 5 (antibody, V domains shown)
VH: QVTLKESGPGILQPSQTLSLTCSFSGFSLSTFGMGVGWIRQPSGKGLEWLAHIWWDDEKYYNSALKSRLTISKATSKNQAFLKIANVDTADTATYYCARISNYGSNYWYFNVWGTGTTVTVSS
VL: QVVLTQSPALMSASPGEKVTMTCSAGSSVSCMYWYQQKPGSSPRVLIYDTSNLASGVPARFTGSGSGTSYSLTISRMEAEDAASYYCQQWNSYPLTFGAGTKLELK
B3: antibody 16 (antibody, V domains shown)
VH: QVTLKESGPGILQPSQTLSLTCSFSGFSLSTFALGVGWIRQPSGRGLEWLAHIWWDDDKYYNPALKSRLTISKDTSKNHVFLKIANVDTADTATYYCARITTYYYGMDYWGQGTSVTVSS
VL: B1 VL with T5S, H17D, S22F, S30G, N32H, K38Q, K39E, E42A, V51A
B4: antibody 22 (antibody, V domains shown)
VH: B2 VH with A80V
VL: B2 VL with C31Y, S84T
B5: antibody 34 (antibody, V domains shown)
VH: QVTLKESGPGILQPSQTLSLTCSFSGFSLSTFSLGVGWIRQSSGKGLEWLAHIWWDDEKYYNPALKSRLTISKDTSKNQVFLKIANVDAADTATYYCARAYYSKSYYALDYWGQGTSVTVSS
VL: DIQMTQSPSSLSASLGERVSLTCRASQEISGYLSWLQQKPDGTIKRLIYAASTLDSGVPKRFSGSRSGSDYSLAISSLESEDFADYYCLQYANFPFTFGSGTKLEIK
B6: antibody 42 (antibody, V domains shown)
VH: B2 VH with F24L, M34R, S63P, A74D, A80V, K83R, S101Q, N111D
VL: LIVLTQSPAIMSASPGEKVTMTCGATSRISYMFWYQQKPGSSPRVLIYDTSNLASGVPVRFSGSGSGTSYSLTISRVEAEDVATYYCQQWNSYPLTFGAGTKLELK
B7: antibody 43 (antibody, V domains shown)
VH: B2 VH with T3A, P42S, H52N, E58D, S63P, A74D, T75A, S101G, N111D
VL: B6 VL with L1Q, K18R, G24S, T26N, F33Y, V45L, V77M, V82A, Y86N, N91S
B8: antibody 44 (antibody, V domains shown)
VH: B2 VH with G44E, E58D, S63P, A74D, A80I, A85T, D91E, A98S, S101G, N111D
VL: QIVLTQSPAVMSASPGEKVTMTCTASSSVYYMYWYQQTPGSSPRLLIYDTSNLASGVPVRFSGSGSGTSYSLTISRMEAEDAATYYCQQWNTYPLTFGAGTKLELK
B9: antibody 50 (antibody, V domains shown)
VH: QVQLQQSGAELVRPGASVKVSCKASGYAFSNYLIEWVKQRPGQGLEWIGVINPGSGFTKYNEKFKGKATLTADKSSSTAYMQLSSLTSEDSAVYFCARGLYRAMDYWGQGTSVTVSS
VL: DIQMTQSPASQSASLGESVTITCLASQTIGTWLAWYQQKPGKSPQLLIYAAASLADGVPSRFSGGGSGTKFSFKISSLQAEDFVNYYCQQIYSTPYTFGGGTKLEIK

Biological target: mouse iR1 wild type (mouse)
Assay: FACS on MEF-DKO cells

| Binder | binding |
| --- | --- |
| B1 | no binding (tested: 3 µg/ml) |
| B2 | no binding (tested: 3 µg/ml) |
| B3 | no binding (tested: 3 µg/ml) |
| B4 | no binding (tested: 3 µg/ml) |
| B5 | no binding (tested: 3 µg/ml) |
| B6 | no binding (tested: 3 µg/ml) |
| B7 | no binding (tested: 3 µg/ml) |
| B8 | no binding (tested: 3 µg/ml) |
| B9 | no binding (tested: 3 µg/ml) |

From patent publication US20240287172A1, “PROTEIN BINDERS TO IRHOM2 EPITOPES” (SCIRHOM GMBH, priority 2019, published 2024)
